No constants are given. Whether binding was seen depends on the method and setting. Some results given as binding are weak or reduced against the parent protein; the word gives no strength.
What was measured:
[1] = target: human CD137 (antigen of the competition ELISA of Example 7 and of the epitope binning of Example 8) (human) (UniProt Q07011); assay: SPR epitope binning, PRO885 immobilized
[2] = target: human CD137 (antigen of the competition ELISA of Example 7 and of the epitope binning of Example 8) (human) (UniProt Q07011); assay: SPR epitope binning, sandwich setup: CD137 captured on immobilized PRO951, PRO885 injected as second binder (22.5 nM)
[3] = target: human CD137 (antigen of the competition ELISA of Example 7 and of the epitope binning of Example 8) (human) (UniProt Q07011); assay: SPR epitope binning (MASS-1), CD137 captured by PRO951
[4] = target: human CD137 (antigen of the competition ELISA of Example 7 and of the epitope binning of Example 8) (human) (UniProt Q07011); assay: SPR epitope binning, CD137 captured by immobilized PRO951
[5] = target: human CD137 (antigen of the competition ELISA of Example 7 and of the epitope binning of Example 8) (human) (UniProt Q07011); assay: SPR (MASS-1): PRO885 immobilized on the chip, CD137 (90 nM) injected and captured
[6] = target: human CD137 (antigen of the competition ELISA of Example 7 and of the epitope binning of Example 8) (human) (UniProt Q07011); assay: SPR epitope binning, PRO951 immobilized
[7] = target: human CD137 (antigen of the competition ELISA of Example 7 and of the epitope binning of Example 8) (human) (UniProt Q07011); assay: SPR epitope binning, sandwich setup: CD137 captured on immobilized PRO885, PRO951 injected as second binder (22.5 nM)
[8] = target: human CD137 (antigen of the competition ELISA of Example 7 and of the epitope binning of Example 8) (human) (UniProt Q07011); assay: SPR epitope binning, CD137 captured by immobilized PRO885
[9] = target: human CD137 (antigen of the competition ELISA of Example 7 and of the epitope binning of Example 8) (human) (UniProt Q07011); assay: SPR epitope binning (MASS-1), 22.5 nM second antibody
[10] = target: human CD137 (antigen of the competition ELISA of Example 7 and of the epitope binning of Example 8) (human) (UniProt Q07011); assay: SPR (MASS-1): PRO951 immobilized on the chip, CD137 (90 nM) injected and captured

Chains of the proteins cited; added tags and fusions are not shown. Lines headed by an entry give the natural chain unless they say otherwise; changes in a name come on top.
UniProt Q07011: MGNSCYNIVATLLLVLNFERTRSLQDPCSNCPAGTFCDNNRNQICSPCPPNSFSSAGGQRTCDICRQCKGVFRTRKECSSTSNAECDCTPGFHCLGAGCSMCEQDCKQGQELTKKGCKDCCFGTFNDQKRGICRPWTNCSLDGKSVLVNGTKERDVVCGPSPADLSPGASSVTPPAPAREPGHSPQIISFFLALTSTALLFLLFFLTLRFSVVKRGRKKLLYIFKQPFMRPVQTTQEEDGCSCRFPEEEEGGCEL

| binding [1] | binding [2] | binding [3] | binding [4] | binding [5] | binding [6] | binding [7] | binding [8] | binding [9] | binding [10] | Binder |
| --- | --- | --- | --- | --- | --- | --- | --- | --- | --- | --- |
| binds | binds | binds | binds | binds |  |  |  |  |  | PRO885 (38-02-A04 sc01 scDb-i/33-03-G02 sc01 scDb-o) (bispecific antibody) DIQMTQSPSSLSASVGDRVTITCQASQSINDYLAWYQQKPGKAPKLLIYKASTLASGVPSRFSGSGSGTDFTLTISSLQPEDFATYYCQQGYIITDIDNVFGTGTKVTVLGGGGGSQVQLQESGPGLVKPSETLSLTCKVSGFSFSNSYWICWIRQPPGKGLEWIGCTFVGSSDSTYYANWAKGRVTISVDSSKNQFSLKLSSVTAADTAVYYCARHPSDAVYGYANNLWGQGTLVTVSSGGGGSGGGGSGGGGSGGGGSIQMTQSPSSLSASVGDRVTITCQASQSINNVLAWYQQKPGKAPKLLIYRASTLASGVPSRFSGSGSGTDFTLTISSLQPEDFATYYCQSSYGNYGDFGTGTKVTVLGGGGGSQVQLQESGPGLVKPSETLSLTCKVSGFSFSSGYDMCWIRQPPGKGLEWIGCVVAGSVDITYYASWAKGRVTISVDSSKNQFSLKLSSVTAADTAVYYCARKDAYSDAFNLWGQGTLVTVSS |
|  |  |  |  |  | binds | binds | binds | binds | binds | PRO951 (38-27-C05 sc02 scDb-i/33-03-G02 sc01 scDb-o) (bispecific antibody) DIQMTQSPSSLSASVGDRVTITCQASQSINDYLAWYQQKPGKAPKLLIYKASTLASGVPSRFSGSGSGTDFTLTISSLQPEDFATYYCQQGYIITDIDNVFGTGTKVTVLGGGGGSEVQLVESGGGLVQPGGSLRLSCAASGFSFNNDYDMCWVRQAPGKGLEWIGCIDTGDGSTYYASWAKGRFTISRDNSKNTVYLQMNSLRAEDTAVYYCAREAASSSGYGMGYFDLWGQGTLVTVSSGGGGSGGGGSGGGGSGGGGSIQMTQSPSSLSASVGDRVTITCQSSQSVYDNNWLAWYQQKPGKAPKLLIYRASNLASGVPSRFSGSGSGTDFTLTISSLQPEDFATYYCQGTYLSSNWYWAFGTGTKVTVLGGGGGSQVQLQESGPGLVKPSETLSLTCKVSGFSFSSGYDMCWIRQPPGKGLEWIGCVVAGSVDITYYASWAKGRVTISVDSSKNQFSLKLSSVTAADTAVYYCARKDAYSDAFNLWGQGTLVTVSS |

— patent US20200332015A1
